The results in this text go back to the supplement of paper PMC10849652.

Amino acid sequences for entries named in this document (tags omitted). A change or cut given only in a name is not applied to a line headed by its entry.
UniProt Q9Y3D6: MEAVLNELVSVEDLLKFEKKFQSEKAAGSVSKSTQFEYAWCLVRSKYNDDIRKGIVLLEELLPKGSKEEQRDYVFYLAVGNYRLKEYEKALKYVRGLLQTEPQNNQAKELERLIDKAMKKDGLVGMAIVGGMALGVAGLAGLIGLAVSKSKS
UniProt Q9H479: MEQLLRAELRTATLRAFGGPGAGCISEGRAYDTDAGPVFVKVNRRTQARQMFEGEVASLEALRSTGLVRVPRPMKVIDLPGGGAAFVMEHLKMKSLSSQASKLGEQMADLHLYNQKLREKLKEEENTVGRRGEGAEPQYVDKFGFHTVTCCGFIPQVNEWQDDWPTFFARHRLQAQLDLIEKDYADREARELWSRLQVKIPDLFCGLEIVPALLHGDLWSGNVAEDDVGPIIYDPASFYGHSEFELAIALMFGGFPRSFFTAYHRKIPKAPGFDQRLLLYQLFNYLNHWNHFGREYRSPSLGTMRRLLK
UniProt Q9Y3I1: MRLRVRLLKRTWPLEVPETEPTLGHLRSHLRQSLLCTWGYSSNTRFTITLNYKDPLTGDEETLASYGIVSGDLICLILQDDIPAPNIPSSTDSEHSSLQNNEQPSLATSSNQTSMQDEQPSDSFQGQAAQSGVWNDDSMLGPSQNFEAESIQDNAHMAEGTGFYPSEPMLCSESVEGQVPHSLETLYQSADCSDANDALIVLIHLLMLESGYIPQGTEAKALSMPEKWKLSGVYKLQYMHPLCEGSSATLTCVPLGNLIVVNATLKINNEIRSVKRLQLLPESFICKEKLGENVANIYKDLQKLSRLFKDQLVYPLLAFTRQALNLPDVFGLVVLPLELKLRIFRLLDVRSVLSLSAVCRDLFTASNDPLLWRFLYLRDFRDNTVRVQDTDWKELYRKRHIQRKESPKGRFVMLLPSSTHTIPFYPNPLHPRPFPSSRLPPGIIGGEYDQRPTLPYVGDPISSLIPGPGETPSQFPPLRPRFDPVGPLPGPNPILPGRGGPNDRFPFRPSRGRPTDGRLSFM
UniProt O95684: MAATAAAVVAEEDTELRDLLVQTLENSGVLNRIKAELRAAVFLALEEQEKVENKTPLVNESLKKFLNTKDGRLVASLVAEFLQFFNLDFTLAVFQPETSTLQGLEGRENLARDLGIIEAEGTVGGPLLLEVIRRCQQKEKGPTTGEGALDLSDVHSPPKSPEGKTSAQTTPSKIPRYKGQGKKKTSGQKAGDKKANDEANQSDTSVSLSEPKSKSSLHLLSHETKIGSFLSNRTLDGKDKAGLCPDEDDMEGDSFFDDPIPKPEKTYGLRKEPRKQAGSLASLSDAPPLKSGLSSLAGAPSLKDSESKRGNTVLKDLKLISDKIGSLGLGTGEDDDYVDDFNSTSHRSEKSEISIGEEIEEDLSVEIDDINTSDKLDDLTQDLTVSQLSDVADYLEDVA
UniProt Q9UK22: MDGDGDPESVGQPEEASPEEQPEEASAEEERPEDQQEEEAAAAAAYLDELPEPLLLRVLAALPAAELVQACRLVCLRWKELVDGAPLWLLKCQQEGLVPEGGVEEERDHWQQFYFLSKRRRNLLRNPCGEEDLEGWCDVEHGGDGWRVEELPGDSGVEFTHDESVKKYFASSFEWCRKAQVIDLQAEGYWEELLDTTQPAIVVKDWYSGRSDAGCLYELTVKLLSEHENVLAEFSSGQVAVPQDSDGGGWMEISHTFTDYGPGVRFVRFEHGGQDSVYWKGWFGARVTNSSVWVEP
UniProt Q96GI7: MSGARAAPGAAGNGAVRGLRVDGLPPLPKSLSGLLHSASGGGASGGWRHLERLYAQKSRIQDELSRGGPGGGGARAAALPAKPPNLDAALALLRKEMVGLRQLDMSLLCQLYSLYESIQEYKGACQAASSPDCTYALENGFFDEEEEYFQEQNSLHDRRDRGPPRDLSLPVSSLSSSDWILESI
UniProt Q9Y5Y0: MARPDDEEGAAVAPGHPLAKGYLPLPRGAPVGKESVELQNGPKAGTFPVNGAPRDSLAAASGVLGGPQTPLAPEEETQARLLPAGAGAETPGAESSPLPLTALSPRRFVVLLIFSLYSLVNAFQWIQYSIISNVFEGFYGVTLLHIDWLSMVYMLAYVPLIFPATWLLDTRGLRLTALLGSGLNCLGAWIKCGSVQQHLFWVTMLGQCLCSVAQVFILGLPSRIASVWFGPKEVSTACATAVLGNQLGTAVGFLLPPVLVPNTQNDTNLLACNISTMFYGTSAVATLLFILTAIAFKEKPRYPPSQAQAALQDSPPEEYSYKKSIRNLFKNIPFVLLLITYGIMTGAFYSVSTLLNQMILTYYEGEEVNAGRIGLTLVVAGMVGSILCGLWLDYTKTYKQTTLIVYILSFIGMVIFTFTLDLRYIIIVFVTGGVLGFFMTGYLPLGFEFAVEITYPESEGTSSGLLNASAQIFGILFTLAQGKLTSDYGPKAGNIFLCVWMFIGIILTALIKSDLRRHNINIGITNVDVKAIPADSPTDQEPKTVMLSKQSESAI
UniProt Q13045: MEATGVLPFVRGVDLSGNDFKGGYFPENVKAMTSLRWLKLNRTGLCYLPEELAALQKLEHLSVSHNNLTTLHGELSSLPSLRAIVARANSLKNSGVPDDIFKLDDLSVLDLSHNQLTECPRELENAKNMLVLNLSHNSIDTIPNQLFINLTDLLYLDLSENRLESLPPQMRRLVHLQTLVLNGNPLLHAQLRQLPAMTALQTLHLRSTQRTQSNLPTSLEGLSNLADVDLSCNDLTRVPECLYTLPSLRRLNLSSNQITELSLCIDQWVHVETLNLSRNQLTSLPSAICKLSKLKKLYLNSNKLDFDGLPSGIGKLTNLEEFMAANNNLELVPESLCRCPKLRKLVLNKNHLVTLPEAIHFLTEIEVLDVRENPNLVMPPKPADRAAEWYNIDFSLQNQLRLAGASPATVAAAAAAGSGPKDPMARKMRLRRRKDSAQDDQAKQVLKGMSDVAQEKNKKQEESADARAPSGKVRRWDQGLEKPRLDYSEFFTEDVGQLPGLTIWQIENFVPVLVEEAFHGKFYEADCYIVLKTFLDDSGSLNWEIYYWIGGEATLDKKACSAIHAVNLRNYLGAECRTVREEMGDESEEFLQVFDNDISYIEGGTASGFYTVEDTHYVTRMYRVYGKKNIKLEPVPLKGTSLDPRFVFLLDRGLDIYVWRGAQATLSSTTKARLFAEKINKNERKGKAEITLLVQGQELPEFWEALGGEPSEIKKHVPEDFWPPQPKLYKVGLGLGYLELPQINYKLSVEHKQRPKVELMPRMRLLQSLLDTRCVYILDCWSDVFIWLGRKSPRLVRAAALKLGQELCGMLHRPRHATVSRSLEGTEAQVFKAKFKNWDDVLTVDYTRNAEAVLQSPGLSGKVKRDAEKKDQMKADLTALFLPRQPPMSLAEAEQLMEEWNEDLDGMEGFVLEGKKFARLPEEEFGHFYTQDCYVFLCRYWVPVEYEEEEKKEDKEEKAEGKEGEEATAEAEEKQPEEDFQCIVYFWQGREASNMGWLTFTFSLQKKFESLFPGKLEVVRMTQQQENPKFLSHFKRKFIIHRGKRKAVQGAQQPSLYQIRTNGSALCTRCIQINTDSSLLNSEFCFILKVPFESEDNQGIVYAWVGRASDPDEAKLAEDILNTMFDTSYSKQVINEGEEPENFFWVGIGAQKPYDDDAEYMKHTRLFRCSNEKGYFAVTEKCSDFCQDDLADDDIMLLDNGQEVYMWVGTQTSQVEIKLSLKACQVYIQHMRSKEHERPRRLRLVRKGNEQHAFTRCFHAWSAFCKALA
UniProt P22087: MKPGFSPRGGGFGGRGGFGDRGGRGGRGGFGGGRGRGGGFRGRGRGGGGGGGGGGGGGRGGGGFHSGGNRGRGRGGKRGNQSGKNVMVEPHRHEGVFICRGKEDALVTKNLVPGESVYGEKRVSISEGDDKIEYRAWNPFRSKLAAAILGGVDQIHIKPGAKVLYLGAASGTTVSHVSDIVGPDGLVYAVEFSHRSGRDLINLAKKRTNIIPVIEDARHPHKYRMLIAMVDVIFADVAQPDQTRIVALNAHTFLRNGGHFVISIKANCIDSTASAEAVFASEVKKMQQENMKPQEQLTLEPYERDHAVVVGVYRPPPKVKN
UniProt O95302: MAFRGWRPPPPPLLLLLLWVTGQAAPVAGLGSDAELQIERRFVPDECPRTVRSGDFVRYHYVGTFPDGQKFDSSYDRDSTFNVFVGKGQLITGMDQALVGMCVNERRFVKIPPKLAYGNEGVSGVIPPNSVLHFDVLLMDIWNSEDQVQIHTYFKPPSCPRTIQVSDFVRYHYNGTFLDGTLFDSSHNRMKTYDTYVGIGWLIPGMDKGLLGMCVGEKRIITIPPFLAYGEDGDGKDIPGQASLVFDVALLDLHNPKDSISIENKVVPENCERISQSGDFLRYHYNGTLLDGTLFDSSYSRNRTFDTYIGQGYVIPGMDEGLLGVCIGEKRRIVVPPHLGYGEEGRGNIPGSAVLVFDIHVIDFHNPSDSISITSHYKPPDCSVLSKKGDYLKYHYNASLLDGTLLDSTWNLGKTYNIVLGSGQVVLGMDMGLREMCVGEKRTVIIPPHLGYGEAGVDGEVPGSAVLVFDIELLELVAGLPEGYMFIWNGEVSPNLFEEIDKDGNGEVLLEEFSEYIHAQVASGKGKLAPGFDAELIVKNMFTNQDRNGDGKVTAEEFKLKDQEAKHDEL
UniProt Q14254: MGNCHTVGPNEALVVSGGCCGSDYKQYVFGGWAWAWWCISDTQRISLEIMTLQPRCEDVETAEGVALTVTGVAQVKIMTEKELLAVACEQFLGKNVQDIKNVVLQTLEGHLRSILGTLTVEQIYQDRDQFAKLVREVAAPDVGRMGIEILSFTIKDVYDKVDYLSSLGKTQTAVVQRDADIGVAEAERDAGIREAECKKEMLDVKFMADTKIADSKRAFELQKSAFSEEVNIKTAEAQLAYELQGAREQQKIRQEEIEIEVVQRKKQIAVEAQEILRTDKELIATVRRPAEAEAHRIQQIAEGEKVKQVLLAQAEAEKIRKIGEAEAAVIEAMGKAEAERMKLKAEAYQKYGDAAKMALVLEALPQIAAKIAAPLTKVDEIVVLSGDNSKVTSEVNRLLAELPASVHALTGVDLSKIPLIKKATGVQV
UniProt Q92562: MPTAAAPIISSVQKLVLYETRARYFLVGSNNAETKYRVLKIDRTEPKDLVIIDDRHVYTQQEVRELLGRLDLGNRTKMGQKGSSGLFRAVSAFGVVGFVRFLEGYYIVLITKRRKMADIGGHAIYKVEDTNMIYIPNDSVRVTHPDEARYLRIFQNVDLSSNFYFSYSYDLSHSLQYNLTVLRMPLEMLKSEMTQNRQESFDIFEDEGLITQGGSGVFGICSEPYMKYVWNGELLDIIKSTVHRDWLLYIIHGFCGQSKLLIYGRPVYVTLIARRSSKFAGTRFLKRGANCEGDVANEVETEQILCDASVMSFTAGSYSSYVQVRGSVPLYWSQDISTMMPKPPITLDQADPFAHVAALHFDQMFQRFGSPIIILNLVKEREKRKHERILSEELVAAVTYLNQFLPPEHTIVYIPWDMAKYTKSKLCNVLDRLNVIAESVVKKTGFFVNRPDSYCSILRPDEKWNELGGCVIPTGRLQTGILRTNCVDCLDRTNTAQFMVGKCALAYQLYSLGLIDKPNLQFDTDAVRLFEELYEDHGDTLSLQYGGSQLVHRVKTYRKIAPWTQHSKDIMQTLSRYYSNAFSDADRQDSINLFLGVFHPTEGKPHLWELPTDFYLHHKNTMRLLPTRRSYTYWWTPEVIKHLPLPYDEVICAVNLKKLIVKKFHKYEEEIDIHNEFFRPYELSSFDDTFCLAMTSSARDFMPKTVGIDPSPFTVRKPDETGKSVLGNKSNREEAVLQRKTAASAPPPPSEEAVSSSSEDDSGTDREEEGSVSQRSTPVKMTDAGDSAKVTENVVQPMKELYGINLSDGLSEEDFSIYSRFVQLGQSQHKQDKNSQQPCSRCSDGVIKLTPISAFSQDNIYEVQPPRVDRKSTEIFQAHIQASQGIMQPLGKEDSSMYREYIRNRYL
UniProt Q00688: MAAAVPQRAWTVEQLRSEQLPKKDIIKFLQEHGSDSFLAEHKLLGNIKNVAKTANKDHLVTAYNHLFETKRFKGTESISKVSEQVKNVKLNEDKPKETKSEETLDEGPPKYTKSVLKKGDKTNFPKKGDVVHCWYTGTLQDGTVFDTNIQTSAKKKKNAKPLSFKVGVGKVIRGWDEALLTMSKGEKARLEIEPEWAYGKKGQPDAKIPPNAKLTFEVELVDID
UniProt Q13451: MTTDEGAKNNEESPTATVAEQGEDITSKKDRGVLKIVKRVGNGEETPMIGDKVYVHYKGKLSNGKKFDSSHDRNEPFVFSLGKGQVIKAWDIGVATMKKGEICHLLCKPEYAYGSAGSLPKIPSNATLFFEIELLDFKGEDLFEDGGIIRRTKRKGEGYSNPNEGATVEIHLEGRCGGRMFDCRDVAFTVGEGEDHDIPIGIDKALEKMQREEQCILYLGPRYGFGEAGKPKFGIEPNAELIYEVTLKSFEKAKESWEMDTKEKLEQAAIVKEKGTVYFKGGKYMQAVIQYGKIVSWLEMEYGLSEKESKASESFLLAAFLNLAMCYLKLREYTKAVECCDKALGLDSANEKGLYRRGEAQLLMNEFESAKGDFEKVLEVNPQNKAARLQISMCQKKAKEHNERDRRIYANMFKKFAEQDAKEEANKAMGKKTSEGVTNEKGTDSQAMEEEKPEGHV

Experiment in all cases: log2 fold change, soluble protein after heating vs DMSO (PISA); higher = thermal stabilisation; K562 lysate, 10 uM; active = over 0.2 and 3.5 SD of the protein, either way, in both replicates (recomputed)
Compound in experiment [1]: NCC(=O)Nc1ccc(-n2nc(C(F)(F)F)cc2-c2ccc3c(ccc4ccccc43)c2)cc1
The procedure, abridged:
(§1)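 Thermal stability, expressed as log-two fold change relative to solvent controls, is given from duplicates. Crude K562 extract in PBS pH 7.4 with 1 mM MgCl2, at 1 mg/mL protein, was treated with 10 μM compound for 30 min and heated in aliquots for 3 min across 48°C-58°C. After pooling, adjustment to 0.5% NP-40 at 4°C and centrifugation at 21,000xg for 90 min, supernatant protein was measured by TMTpro 16plex LC-MS/MS with channel sums equalised.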

Compound in experiment [2]: O=C(CCCCCCC(=O)Nc1ccccc1)NO [vorinostat]
Summed up: as §1

Compound in experiment [3]: O=C(O)c1ccc2c(c1)nc(Nc1cccc(Cl)c1)c1ccncc12 [silmitasertib]
The procedure, abridged:
as §1

Compound in experiment [4]: O=C1NC(=O)C(c2cnc3ccccn23)=C1c1cn2c3c(cc(F)cc13)CN(C(=O)N1CCCCC1)CC2
The procedure, abridged:
as §1

Compound in experiment [5]: c1cn2cc(-c3ccc4cn[nH]c4c3)nc(Nc3ccc(N4CCOCC4)cc3)c2n1 [entospletinib]
Summed up:
as §1

Some of the results follow.

Turning to FAT3 isoform 1 (UniProt Q8TDW7), the log2 fold change is inactive: 0.071 in experiment [1]; inactive: 0.137 in experiment [2]; inactive: -0.052 in experiment [3]; inactive: 0.074 in experiment [4]; inactive: 0.03 in experiment [5].

With FKBP15 (UniProt Q5T1M5), the log2 fold change in experiment [1] was inactive: -0.001; in experiment [2], inactive: 0.064; in experiment [3] it was inactive: -0.016; in experiment [4], inactive: 0.024; in experiment [5], inactive: -0.024.

Take FIS1 (UniProt Q9Y3D6): the log2 fold change is inactive: -0.003 in experiment [1]; inactive: 0.132 in experiment [2]; inactive: -0.119 in experiment [3]; inactive: -0.012 in experiment [4]; inactive: -0.016 in experiment [5].

For the target FN3K (UniProt Q9H479), the log2 fold change in experiment [1] is inactive: -0.001; in experiment [2], inactive: 0.126; in experiment [3], inactive: -0.033; in experiment [4], inactive: 0.011; in experiment [5], inactive: 0.011.

For the target FDX2 (UniProt Q6P4F2), the log2 fold change in experiment [1] was inactive: -0.03; in experiment [2], inactive: 0.195; in experiment [3] it was inactive: -0.069; in experiment [4], inactive: -0.066; in experiment [5], inactive: 0.042.

As for FBXO42 (UniProt Q6P3S6), the log2 fold change is inactive: 0.132 in experiment [1]; inactive: 0.214 in experiment [2]; inactive: -0.012 in experiment [3]; inactive: -0.006 in experiment [4]; inactive: 0.058 in experiment [5].

Turning to FKBP8 isoform 2 (UniProt Q14318), the log2 fold change in experiment [1] was inactive: 0.024; in experiment [2], active: -0.219; in experiment [3] it was inactive: 0.001; in experiment [4] it was inactive: -0.028; in experiment [5], inactive: 0.018.

FBXO7 (UniProt Q9Y3I1): the log2 fold change in experiment [1] is inactive: 0.007; in experiment [2] it was inactive: -0.033; in experiment [3], inactive: -0.017; in experiment [4], inactive: -0.065; in experiment [5] it was inactive: 0.024.

For FGGY isoform 3 (UniProt Q96C11), the log2 fold change is inactive: -0.076 in experiment [1]; inactive: 0.101 in experiment [2]; inactive: -0.032 in experiment [3]; inactive: -0.134 in experiment [4]; inactive: -0.009 in experiment [5].

For FGFR1OP isoform 3 (UniProt O95684), the log2 fold change in experiment [1] is inactive: -0.189.

With FDX1 (UniProt P10109), the log2 fold change was inactive: -0.02 in experiment [1]; inactive: 0.166 in experiment [2]; inactive: -0.066 in experiment [3]; inactive: 0.043 in experiment [4]; inactive: -0.066 in experiment [5].

Consider FCHSD1 (UniProt Q86WN1), for which the log2 fold change in experiment [1] was inactive: -0.14; in experiment [2] it was inactive: 0.021; in experiment [3], inactive: 0.008; in experiment [4], inactive: 0.063; in experiment [5], inactive: 0.027.

Regarding FBXO2 (UniProt Q9UK22), the log2 fold change in experiment [1] was inactive: -0.068; in experiment [2] it was inactive: 0.162; in experiment [3], inactive: -0.176; in experiment [4], inactive: 0.041; in experiment [5] it was inactive: 0.14.

As for FAM89A (UniProt Q96GI7), the log2 fold change in experiment [1] was inactive: -0.274; in experiment [2], inactive: 0.003; in experiment [3], inactive: 0.001; in experiment [4], inactive: 0.024; in experiment [5] it was inactive: 0.021.

For the target FLVCR1 (UniProt Q9Y5Y0), the log2 fold change in experiment [1] was inactive: 0.035; in experiment [2] it was inactive: 0.107; in experiment [3], inactive: -0.025; in experiment [4], inactive: 0.066; in experiment [5], inactive: 0.

FBLL1 (UniProt A6NHQ2): the log2 fold change in experiment [1] was inactive: 0.006; in experiment [2] it was inactive: 0.094; in experiment [3], inactive: 0.034; in experiment [4] it was inactive: -0.017; in experiment [5], inactive: -0.014.

In the case of FLII (UniProt Q13045), the log2 fold change in experiment [1] was inactive: -0.032; in experiment [2] it was inactive: -0.145; in experiment [3], inactive: 0.026; in experiment [4], inactive: -0.031; in experiment [5], inactive: 0.01.

In the case of FBL (UniProt P22087), the log2 fold change in experiment [1] was inactive: 0.058; in experiment [2], inactive: 0.013; in experiment [3], inactive: 0.026; in experiment [4] it was inactive: 0.013; in experiment [5] it was inactive: -0.012.

FGFR1OP (UniProt O95684): the log2 fold change in experiment [1] was inactive: 0.067; in experiment [2], inactive: 0.098; in experiment [3] it was inactive: -0.056; in experiment [4], inactive: 0.03; in experiment [5] it was inactive: -0.003.

Consider FKBP9 (UniProt O95302), for which the log2 fold change in experiment [1] was inactive: -0.016; in experiment [2] it was inactive: 0.104; in experiment [3], inactive: -0.04; in experiment [4], inactive: 0.002; in experiment [5], inactive: 0.011.

For the target FLOT2 (UniProt Q14254), the log2 fold change was inactive: 0.017 in experiment [1]; inactive: 0.135 in experiment [2]; inactive: 0.028 in experiment [3]; inactive: -0.003 in experiment [4]; inactive: 0.026 in experiment [5].

Turning to FIG4 (UniProt Q92562), the log2 fold change is inactive: -0.037 in experiment [1]; active: -0.517 in experiment [2]; inactive: 0.017 in experiment [3]; inactive: 0.056 in experiment [4]; inactive: 0.052 in experiment [5].

On to FKBP3 (UniProt Q00688), for which the log2 fold change in experiment [1] was inactive: 0.018; in experiment [2], inactive: 0.158; in experiment [3] it was inactive: -0.031; in experiment [4], inactive: 0.009; in experiment [5], inactive: -0.005.

With FECH isoform 2 (UniProt P22830), the log2 fold change in experiment [1] was inactive: -0.185; in experiment [2], inactive: -0.401; in experiment [3] it was inactive: -0.03; in experiment [4] it was inactive: -0.021; in experiment [5], inactive: 0.977.

Regarding FBRSL1, A0A3B3IRR3, the log2 fold change in experiment [1] was inactive: 0.043; in experiment [2] it was inactive: 0.142; in experiment [3] it was inactive: -0.013; in experiment [4], inactive: 0.069; in experiment [5], inactive: -0.087.

In the case of FKBP5 (UniProt Q13451), the log2 fold change was inactive: -0.008 in experiment [1]; inactive: -0.145 in experiment [2]; inactive: 0.017 in experiment [3]; inactive: -0.021 in experiment [4]; inactive: 0.006 in experiment [5].

Take FERMT3 (UniProt Q86UX7): the log2 fold change in experiment [1] is inactive: 0.001; in experiment [2], inactive: -0.034; in experiment [3], inactive: -0.001; in experiment [4] it was inactive: 0.002; in experiment [5], inactive: -0.003.
